Assay results: the supplement of paper PMC11006884
Most of the targets with a hit are listed elsewhere, so they are rarer here than in the full data. The data scatter; read single values as rough. The entries are a selection whose mix differs from that of the whole data set.

By UniProt entry, the sequences of proteins in these tests, tags left out. Where a name states a change or a piece, a line headed by the entry shows the natural chain unless it says otherwise.
UniProt Q9BRS8: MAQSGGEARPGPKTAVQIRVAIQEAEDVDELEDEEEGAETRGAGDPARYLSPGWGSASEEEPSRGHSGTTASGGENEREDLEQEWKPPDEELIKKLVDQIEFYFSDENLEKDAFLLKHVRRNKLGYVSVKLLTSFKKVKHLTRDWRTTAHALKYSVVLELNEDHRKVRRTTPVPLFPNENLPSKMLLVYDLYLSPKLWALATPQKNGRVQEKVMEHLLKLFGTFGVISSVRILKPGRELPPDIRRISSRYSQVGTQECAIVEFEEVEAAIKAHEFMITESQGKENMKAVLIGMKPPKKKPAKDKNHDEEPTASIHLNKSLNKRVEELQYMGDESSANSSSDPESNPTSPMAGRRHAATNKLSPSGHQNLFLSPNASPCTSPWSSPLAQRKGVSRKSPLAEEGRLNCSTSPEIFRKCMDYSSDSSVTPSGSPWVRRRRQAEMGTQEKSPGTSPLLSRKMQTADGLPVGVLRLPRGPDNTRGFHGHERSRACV
UniProt Q9BV20: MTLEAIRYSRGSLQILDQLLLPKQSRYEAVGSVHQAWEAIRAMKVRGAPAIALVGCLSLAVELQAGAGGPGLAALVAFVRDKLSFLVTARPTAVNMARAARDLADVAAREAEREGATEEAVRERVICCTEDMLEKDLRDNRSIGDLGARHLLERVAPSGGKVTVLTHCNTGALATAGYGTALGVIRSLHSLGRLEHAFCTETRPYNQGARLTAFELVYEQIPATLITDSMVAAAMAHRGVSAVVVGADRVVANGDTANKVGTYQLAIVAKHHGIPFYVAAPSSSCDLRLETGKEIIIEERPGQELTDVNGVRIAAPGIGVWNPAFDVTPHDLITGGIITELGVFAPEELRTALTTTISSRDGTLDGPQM
UniProt Q9BW19: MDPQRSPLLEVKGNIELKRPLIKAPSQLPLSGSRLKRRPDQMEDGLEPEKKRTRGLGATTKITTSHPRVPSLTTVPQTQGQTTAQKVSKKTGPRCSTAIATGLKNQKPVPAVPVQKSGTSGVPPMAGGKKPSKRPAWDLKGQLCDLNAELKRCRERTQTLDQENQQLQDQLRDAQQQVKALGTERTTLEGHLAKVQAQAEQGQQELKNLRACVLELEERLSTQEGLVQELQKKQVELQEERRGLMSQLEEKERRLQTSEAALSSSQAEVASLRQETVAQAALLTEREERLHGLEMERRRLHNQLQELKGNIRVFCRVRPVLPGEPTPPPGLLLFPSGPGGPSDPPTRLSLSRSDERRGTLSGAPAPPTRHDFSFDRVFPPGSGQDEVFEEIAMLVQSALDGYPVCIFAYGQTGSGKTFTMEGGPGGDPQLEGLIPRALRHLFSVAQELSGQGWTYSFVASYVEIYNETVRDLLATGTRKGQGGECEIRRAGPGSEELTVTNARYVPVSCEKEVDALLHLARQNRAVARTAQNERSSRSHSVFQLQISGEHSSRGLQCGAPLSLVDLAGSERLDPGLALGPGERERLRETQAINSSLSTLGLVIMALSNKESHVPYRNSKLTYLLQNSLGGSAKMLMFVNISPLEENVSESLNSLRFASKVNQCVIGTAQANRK
UniProt Q9H0D6: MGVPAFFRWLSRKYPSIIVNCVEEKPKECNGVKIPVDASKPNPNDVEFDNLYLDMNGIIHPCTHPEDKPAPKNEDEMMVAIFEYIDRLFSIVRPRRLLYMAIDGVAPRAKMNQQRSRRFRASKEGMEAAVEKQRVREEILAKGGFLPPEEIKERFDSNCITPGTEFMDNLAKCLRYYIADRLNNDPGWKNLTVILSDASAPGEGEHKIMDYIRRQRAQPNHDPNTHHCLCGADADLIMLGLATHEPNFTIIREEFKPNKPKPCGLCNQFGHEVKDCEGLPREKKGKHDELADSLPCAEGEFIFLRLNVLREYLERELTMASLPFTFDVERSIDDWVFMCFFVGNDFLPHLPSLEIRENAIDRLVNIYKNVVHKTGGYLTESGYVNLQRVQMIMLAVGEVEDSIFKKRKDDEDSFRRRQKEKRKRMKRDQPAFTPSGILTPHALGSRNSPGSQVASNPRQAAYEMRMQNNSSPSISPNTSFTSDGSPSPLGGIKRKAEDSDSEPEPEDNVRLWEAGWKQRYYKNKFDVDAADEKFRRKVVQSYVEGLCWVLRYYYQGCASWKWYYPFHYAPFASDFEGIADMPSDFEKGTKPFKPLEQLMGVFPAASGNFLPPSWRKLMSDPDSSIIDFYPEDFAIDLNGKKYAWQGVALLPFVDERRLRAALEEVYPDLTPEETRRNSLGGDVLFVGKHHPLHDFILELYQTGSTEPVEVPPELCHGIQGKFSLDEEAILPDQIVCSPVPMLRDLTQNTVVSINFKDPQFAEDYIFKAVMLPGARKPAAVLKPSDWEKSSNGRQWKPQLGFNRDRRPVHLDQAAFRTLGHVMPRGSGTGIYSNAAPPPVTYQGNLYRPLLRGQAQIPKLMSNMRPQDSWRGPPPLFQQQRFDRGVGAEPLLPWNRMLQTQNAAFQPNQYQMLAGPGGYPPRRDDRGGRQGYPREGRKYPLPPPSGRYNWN
UniProt Q9BXP5: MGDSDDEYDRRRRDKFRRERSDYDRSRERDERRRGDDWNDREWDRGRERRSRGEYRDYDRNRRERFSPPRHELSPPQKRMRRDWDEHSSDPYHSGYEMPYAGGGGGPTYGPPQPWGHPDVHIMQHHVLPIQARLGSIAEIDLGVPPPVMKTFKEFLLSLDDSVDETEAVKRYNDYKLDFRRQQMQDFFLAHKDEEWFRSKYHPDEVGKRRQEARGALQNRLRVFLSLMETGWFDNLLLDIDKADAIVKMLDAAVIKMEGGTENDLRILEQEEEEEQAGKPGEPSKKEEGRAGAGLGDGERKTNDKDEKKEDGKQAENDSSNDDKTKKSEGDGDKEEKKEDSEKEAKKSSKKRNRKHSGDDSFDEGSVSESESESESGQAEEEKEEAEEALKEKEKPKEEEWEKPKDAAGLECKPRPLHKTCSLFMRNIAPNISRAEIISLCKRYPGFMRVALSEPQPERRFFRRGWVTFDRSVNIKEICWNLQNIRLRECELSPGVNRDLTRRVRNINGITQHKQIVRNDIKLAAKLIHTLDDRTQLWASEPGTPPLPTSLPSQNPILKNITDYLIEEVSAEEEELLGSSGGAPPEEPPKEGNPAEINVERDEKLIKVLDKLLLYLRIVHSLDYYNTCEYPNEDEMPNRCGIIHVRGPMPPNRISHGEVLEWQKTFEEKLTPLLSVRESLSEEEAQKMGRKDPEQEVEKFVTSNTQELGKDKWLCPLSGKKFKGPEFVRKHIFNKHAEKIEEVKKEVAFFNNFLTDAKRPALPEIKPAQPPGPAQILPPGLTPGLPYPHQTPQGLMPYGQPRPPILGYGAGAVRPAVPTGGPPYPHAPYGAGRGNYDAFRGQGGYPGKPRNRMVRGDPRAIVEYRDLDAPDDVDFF
UniProt Q9BTX1: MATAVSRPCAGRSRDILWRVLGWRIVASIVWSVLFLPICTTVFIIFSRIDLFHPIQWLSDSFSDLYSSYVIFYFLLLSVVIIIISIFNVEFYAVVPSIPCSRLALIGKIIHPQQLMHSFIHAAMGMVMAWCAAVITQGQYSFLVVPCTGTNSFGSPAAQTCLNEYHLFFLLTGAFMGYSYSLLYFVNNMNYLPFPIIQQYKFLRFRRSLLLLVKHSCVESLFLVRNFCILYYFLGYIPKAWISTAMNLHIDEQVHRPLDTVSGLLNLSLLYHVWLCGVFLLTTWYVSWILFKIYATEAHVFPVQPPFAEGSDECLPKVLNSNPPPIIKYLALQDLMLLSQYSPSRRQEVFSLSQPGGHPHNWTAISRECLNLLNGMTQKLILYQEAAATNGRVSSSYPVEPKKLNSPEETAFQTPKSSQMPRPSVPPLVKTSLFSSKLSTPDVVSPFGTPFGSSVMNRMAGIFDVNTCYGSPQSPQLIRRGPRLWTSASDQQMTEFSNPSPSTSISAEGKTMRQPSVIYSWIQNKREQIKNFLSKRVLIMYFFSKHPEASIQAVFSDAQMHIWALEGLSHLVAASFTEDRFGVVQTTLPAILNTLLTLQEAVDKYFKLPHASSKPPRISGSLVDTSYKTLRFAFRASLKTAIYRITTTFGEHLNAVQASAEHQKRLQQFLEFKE
UniProt Q9BTY7: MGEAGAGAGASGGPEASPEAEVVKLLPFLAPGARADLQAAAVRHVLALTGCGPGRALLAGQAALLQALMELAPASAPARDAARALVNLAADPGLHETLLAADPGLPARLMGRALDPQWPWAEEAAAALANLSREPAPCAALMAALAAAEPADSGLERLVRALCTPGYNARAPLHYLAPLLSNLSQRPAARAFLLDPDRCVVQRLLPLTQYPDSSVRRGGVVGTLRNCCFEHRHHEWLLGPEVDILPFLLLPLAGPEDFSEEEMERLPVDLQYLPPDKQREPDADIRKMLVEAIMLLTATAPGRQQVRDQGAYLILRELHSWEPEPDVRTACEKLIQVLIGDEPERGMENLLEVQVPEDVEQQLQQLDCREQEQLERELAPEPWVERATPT
UniProt Q9H078: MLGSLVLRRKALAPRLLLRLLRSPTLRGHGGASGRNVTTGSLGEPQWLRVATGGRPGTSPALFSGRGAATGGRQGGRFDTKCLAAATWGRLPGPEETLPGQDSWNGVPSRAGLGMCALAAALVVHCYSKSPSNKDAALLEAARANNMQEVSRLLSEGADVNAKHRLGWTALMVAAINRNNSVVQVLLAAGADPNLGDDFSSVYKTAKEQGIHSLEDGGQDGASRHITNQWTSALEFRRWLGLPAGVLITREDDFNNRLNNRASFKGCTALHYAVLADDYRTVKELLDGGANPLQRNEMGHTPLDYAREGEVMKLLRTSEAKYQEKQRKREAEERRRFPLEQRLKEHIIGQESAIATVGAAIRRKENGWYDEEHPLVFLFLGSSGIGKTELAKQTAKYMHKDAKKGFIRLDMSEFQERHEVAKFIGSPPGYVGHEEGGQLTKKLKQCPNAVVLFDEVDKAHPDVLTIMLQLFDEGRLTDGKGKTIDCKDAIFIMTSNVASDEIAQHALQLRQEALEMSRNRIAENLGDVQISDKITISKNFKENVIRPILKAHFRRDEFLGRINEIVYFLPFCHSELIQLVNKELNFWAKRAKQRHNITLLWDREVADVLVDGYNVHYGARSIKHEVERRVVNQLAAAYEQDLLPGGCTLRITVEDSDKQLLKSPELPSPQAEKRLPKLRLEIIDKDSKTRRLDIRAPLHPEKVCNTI
UniProt Q9BXS6: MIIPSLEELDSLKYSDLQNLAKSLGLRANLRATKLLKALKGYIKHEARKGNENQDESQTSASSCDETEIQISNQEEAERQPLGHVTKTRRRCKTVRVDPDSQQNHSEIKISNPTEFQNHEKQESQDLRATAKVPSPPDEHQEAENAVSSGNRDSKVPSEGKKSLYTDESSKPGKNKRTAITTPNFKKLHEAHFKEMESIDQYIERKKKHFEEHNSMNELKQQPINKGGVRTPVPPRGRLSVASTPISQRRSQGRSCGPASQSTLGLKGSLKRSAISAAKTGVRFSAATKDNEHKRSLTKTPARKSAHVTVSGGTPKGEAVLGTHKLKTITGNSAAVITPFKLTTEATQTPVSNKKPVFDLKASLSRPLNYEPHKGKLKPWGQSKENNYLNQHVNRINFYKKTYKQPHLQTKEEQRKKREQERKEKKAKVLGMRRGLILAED
UniProt Q9BZL6: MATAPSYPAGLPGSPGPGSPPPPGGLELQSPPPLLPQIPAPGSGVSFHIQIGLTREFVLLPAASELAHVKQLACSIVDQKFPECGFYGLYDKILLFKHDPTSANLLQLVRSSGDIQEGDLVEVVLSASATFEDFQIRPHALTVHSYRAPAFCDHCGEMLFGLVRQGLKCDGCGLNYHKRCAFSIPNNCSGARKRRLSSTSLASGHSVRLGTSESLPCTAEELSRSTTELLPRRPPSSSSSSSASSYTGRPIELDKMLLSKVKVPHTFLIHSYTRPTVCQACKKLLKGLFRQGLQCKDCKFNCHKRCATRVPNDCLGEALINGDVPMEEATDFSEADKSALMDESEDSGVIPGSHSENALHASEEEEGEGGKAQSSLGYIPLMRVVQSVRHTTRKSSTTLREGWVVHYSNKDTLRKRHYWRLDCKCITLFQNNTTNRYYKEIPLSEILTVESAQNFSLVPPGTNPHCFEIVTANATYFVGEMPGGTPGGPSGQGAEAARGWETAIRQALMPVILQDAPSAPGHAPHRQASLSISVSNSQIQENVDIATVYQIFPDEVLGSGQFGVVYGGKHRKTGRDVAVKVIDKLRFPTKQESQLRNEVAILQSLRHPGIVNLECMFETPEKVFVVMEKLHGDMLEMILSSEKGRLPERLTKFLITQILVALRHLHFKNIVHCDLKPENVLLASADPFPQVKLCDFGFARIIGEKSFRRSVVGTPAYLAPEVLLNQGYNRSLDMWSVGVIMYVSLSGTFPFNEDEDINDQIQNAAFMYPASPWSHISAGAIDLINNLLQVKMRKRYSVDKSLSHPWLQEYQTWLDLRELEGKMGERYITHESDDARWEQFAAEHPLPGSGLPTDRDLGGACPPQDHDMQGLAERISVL

Compound: COC(=O)/C=C/c1ccccc1 [methyl cinnamate]
Assay: log2 ratio of iodoacetamide-alkyne labeling of the cysteine site, DMSO over compound (competition); higher = stronger covalent engagement of the cysteine by the compound, active = 1 or more
Settings: 500 µM; treatment time 1 h; system: HEK293T cell lysate
Procedure, shortened: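 After 1 h at ambient temperature with vehicle or electrophile (500 µM), HEK293T lysate (2 mg/mL) was labelled for 1 h with iodoacetamide alkyne and clicked to sCIP-TMT reagents. Pooled samples were trypsin-digested overnight at 37 °C, streptavidin-enriched, acid-eluted and analysed by Orbitrap Eclipse LC-MS/MS with FAIMS, then quantified in FragPipe over three replicates with duplicate channels. A cysteine's log2 competition ratio is its mean control-channel over mean compound-channel reporter intensity. Cysteines quantified in only one replicate were not included.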

log2 ratio of iodoacetamide-alkyne labeling, inactive:
UniProt Q9BRS8_C416 0.17
KLC2 C474 (UniProt Q9H0B6) 0.176
UniProt Q9BWW4_C80 -0.111
MRI1 C168 (UniProt Q9BV20) 0.0127
ACAT2 C148 (UniProt Q9BWD1) 0.0878
KIFC1 C509 (UniProt Q9BW19) 0.295
ASPSCR1 C225 (UniProt Q9BZE9) 0.321
SETD2 C714 (UniProt Q9BYW2) 0.202
XRN2 C736 (UniProt Q9H0D6) -0.0569
UBE2O C341 (UniProt Q9C0C9) 0.00914
UniProt Q9BXP5_C479 0.0362
UniProt Q9BTX1_C369 0.268
XRN2 C296 (UniProt Q9H0D6) 0.14
FTO C326 (UniProt Q9C0B1) -0.0329
GNL3 C158 (UniProt Q9BVP2) 0.273
UniProt Q9BYV8_C171 0.112
HNRNPUL1 C391 (UniProt Q9BUJ2) 0.0605
ITPA C146 (UniProt Q9BY32) 0.297
RPAP1 C84 (UniProt Q9BWH6) 0.133
SLC4A1AP C125 (UniProt Q9BWU0) -0.000441
UniProt Q9BW83_C149 -0.114
ATG5 C19 (UniProt Q9H1Y0) 0.217
UNC93B1 C583 (UniProt Q9H1C4) 0.392
UniProt Q9BTY7_C199 -0.167
UniProt Q9BTE3_C287 0.347
CLPB C572 (UniProt Q9H078) -0.0962
UniProt Q9BU76_C58 0.397
NUSAP1 C256 (UniProt Q9BXS6) 0.32
ACAT2 C92 (UniProt Q9BWD1) -0.0227
UniProt Q9BXP5_C412 0.401
XPO4 C492 (UniProt Q9C0E2) -0.212
ADNP C31 (UniProt Q9H2P0) -0.113
C1orf50 C189 (UniProt Q9BV19) -0.34
PRKD2 C217 (UniProt Q9BZL6) 0.31
UniProt Q9BTT6_C22 -0.0453
TNKS1BP1 C1114 (UniProt Q9C0C2) 0.0273
SCAPER C1301 (UniProt Q9BY12) 0.123

A section from the list above, as a working copy:
log2 ratio of iodoacetamide-alkyne labeling, inactive:
UniProt Q9BXP5_C479 0.0362
UniProt Q9BTX1_C369 0.268
XRN2 C296 (UniProt Q9H0D6) 0.14
FTO C326 (UniProt Q9C0B1) -0.0329
GNL3 C158 (UniProt Q9BVP2) 0.273
UniProt Q9BYV8_C171 0.112
HNRNPUL1 C391 (UniProt Q9BUJ2) 0.0605
ITPA C146 (UniProt Q9BY32) 0.297
RPAP1 C84 (UniProt Q9BWH6) 0.133
